For one sequence, Kd results are on record in patent US5861254.

For at least one entry, the source does not settle the construct or the ends of the probe.

The target of data set [1] is T1, L-selectin-IgG1 Fc fusion (LS-Rg) (Homo sapiens) (UniProt P14151).
T1 sequence: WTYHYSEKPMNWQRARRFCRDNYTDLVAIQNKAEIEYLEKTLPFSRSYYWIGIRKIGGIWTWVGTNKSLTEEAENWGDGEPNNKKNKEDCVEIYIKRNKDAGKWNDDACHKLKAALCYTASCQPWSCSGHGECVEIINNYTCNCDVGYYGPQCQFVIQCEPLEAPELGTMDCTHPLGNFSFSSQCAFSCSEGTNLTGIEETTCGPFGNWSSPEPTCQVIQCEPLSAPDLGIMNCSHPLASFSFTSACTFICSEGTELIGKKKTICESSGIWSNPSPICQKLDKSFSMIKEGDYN
Put plainly: SPR. As to conditions: 2'-F pyrimidines; SHMCK buffer (1 mM Ca, 1 mM Mg) 0.005% P20; ka 1.0e5, kd 2.8e-3; rebinding affects kd; purified recombinant protein.

In data set [2] the target is T1, L-selectin-IgG1 Fc fusion (LS-Rg) (Homo sapiens). Put plainly: binding assay. As to conditions: 2'-F pyrimidines; CITED from WO96/40703; LF1613 from bead SELEX against LsRg; purified recombinant protein.

For the sequence “GGGAGGACGAUGCGGUGCUAUUCUUAAGCGGCGUGUUUUUCAAGCCAAUAUCAUCAGACGACUCGCCCGA [LF1613]”, the Kd (commonly the free concentration of one partner at which half of the binding sites on the other are occupied at equilibrium, for simple one-to-one binding) is 28 nM in data set [1] and 0.1 nM in data set [2].
